Assay [1] addresses Gcn1 (S. cerevisiae (endogenous in the GCN20-TAP strain)) (UniProt P33892). The assay can be described thus: cryo-EM structure; native Gcn20-TAP eluate (cells without 3-AT), cross-linked with 0.02% glutaraldehyde 20 min on ice, 0.01% DDM; Titan Krios 300 kV, Falcon II; focused refinement of the leading and the colliding ribosome of the Gcn1-disome.
The target in assay [2] is T1, ribosome binding GTPase 2 (Rbg2) (S. cerevisiae (endogenous in the GCN20-TAP strain)) (UniProt P53295).
T1 sequence: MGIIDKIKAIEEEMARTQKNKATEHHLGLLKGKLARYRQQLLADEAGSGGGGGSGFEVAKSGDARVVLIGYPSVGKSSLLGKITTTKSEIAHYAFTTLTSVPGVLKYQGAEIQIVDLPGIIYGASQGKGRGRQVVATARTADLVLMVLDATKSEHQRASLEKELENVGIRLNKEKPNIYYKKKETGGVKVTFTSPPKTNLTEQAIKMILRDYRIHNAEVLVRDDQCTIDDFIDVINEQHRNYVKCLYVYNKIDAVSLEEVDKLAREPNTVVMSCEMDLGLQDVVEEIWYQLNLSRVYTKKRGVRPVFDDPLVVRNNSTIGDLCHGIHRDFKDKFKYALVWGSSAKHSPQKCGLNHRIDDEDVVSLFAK
The description is as above.

Sequences of proteins named here, by UniProt entry; tags and fusion partners are left off.
UniProt P33892: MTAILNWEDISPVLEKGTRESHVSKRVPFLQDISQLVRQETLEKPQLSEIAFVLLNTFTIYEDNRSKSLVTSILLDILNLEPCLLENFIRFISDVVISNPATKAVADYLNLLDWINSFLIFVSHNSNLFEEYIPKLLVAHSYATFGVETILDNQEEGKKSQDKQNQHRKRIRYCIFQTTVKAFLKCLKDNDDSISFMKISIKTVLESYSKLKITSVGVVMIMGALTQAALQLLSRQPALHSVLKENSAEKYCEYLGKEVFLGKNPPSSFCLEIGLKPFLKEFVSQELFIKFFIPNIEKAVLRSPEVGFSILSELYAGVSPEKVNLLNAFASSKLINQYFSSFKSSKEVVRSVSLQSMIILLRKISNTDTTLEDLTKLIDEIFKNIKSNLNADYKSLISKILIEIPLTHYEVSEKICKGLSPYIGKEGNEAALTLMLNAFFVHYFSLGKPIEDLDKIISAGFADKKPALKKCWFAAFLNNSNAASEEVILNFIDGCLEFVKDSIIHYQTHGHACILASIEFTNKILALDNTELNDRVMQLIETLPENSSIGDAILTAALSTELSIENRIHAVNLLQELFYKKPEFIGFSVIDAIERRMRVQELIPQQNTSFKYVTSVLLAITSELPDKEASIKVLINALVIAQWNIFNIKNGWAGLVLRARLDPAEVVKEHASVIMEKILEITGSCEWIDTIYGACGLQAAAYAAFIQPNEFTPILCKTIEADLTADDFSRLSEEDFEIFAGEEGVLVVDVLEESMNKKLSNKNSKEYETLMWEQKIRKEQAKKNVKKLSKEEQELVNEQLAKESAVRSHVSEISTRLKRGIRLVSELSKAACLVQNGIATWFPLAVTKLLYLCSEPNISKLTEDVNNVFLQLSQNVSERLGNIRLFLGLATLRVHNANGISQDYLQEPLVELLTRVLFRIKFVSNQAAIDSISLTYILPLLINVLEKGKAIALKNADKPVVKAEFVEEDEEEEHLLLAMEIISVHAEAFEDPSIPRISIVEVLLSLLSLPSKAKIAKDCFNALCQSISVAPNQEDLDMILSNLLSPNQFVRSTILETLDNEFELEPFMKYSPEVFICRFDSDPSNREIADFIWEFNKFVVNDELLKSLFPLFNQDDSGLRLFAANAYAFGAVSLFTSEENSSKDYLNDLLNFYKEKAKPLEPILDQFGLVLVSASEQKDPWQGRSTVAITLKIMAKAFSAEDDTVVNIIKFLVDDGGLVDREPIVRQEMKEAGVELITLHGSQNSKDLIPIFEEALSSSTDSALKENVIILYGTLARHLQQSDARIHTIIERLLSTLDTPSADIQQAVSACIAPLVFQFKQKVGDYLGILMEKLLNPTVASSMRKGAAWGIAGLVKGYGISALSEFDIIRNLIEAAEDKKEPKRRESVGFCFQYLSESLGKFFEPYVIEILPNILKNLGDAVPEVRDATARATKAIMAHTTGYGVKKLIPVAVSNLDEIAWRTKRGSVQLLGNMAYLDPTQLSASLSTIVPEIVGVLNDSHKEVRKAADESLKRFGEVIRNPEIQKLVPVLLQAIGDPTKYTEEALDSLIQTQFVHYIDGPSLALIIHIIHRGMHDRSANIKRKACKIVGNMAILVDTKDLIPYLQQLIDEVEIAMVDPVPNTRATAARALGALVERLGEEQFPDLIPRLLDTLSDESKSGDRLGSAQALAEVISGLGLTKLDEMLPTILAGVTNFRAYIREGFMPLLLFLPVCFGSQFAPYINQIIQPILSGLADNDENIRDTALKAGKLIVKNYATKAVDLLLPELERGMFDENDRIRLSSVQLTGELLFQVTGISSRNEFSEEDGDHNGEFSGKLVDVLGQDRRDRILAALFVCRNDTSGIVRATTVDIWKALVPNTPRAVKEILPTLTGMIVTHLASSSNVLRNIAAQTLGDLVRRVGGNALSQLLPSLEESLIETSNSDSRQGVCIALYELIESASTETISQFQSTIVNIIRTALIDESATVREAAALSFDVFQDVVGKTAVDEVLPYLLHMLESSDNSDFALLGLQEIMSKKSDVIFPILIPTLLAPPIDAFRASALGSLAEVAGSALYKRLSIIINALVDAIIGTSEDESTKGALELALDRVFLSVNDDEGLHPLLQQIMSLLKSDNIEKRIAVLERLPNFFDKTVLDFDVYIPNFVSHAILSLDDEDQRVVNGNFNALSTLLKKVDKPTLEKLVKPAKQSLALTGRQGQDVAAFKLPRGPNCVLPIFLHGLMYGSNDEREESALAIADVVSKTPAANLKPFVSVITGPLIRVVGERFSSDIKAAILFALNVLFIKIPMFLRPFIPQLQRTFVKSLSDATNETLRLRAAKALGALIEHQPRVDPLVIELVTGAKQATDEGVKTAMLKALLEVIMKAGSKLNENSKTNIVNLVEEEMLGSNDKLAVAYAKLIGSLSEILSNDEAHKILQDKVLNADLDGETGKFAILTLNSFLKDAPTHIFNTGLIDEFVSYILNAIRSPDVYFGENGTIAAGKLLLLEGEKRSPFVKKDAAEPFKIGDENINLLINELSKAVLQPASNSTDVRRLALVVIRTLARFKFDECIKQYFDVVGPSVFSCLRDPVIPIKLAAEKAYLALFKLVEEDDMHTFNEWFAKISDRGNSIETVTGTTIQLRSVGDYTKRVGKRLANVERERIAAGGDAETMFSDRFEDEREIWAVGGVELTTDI

No constants are given. Whether binding was seen depends on the method and setting. Some entries that bind do so weakly or less than the wild type.

The values that follow come from paper PMC8040806.

B1: Gir2 (Genetically interacts with ribosomal genes 2) (protein, UniProt Q03768 1-265)
chain: MDYKEEQKQELEVLESIYPDELRIINDEYPKIKFEVAIKLELDTGDSTSVLTKEHTIIAEFKLPENYPDEPCLISLEAQEVALNDNEEDNEEDEDEVEYDDHGNKVLKKFENLPDLISFKGYLPELTVQLESQIETDMLLGMQMCFALISSIKERCEQWYSEQLNKLEKQYELEAQEREKKEQAKFHGTKVTRESYLEWRSKFRQELKLDERDQVRRMKAHHGKLTGKQMFEQGVVGTGDEYMEEDDASVDDVAKGLAKTEIANQ
As for B1, the binding result in assay [1] and in assay [2] was “binds” each time.
